# Laboratory results reported in the supplement of paper PMC6411743.
# Amino acid sequences for entries named in this document (tags omitted). A change or cut given only in a name is not applied to a line headed by its entry.
# UniProt P48960: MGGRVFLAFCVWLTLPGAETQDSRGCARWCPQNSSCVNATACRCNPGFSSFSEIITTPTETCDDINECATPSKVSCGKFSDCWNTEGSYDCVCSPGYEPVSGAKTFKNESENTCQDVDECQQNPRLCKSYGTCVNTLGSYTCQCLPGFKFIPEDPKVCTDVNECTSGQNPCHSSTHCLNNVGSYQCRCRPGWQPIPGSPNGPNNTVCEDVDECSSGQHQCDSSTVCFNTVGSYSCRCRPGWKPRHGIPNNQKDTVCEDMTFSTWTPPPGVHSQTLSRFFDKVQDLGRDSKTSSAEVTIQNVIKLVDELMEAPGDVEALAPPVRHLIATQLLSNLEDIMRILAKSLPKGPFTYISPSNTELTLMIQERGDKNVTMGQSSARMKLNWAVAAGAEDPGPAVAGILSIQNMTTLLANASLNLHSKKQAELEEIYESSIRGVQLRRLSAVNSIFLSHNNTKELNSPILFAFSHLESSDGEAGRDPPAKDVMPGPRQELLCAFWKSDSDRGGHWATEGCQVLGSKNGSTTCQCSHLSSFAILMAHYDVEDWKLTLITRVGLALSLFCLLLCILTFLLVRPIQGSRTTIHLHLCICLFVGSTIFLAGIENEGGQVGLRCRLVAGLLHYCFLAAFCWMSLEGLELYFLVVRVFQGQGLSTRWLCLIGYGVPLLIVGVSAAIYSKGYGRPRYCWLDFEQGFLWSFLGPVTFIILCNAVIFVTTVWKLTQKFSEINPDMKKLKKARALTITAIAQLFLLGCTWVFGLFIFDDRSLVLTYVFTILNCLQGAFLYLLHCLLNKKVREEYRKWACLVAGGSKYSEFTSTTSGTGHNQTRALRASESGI
# UniProt P51532, whole entry: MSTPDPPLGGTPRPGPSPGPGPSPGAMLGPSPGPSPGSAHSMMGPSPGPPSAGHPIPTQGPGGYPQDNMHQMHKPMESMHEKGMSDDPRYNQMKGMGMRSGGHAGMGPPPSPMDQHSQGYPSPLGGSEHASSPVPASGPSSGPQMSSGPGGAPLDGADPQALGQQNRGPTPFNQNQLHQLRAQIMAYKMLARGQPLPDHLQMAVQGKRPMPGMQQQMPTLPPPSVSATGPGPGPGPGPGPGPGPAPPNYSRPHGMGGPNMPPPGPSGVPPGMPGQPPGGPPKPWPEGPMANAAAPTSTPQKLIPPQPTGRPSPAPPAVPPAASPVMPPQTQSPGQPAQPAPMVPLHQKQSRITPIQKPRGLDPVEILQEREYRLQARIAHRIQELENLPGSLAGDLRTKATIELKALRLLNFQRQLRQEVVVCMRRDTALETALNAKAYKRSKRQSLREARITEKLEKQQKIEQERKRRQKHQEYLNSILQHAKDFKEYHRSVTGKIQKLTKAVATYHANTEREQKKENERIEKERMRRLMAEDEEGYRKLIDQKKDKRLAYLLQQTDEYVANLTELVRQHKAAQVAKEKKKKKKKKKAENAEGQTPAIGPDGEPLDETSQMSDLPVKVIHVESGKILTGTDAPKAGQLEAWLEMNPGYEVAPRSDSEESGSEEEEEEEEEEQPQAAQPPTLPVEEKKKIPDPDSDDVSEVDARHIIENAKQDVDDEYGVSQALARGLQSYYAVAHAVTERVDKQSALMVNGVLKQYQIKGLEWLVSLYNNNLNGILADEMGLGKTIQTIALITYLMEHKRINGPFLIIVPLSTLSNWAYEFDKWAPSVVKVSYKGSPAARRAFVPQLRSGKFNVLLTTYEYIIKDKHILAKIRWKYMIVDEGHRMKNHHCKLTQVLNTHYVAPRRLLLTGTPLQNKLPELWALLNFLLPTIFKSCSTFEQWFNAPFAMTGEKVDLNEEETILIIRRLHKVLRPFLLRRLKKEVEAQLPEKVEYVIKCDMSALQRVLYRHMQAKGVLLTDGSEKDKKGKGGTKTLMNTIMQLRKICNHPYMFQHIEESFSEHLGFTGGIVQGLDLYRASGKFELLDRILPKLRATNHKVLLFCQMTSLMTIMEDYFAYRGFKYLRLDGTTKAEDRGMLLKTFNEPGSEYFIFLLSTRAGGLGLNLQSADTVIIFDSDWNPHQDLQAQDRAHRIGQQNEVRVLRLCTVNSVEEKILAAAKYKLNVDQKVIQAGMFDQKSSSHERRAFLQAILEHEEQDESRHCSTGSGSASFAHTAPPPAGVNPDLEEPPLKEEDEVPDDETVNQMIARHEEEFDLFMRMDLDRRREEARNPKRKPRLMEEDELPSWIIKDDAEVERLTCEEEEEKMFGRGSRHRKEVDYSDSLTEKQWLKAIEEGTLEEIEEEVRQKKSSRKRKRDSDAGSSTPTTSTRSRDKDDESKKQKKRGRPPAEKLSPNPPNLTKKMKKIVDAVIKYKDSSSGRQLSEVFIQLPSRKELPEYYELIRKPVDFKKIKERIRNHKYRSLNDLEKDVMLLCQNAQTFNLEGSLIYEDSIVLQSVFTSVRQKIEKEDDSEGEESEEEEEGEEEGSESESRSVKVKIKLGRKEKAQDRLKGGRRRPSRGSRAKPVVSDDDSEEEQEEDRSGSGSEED
# UniProt P40306: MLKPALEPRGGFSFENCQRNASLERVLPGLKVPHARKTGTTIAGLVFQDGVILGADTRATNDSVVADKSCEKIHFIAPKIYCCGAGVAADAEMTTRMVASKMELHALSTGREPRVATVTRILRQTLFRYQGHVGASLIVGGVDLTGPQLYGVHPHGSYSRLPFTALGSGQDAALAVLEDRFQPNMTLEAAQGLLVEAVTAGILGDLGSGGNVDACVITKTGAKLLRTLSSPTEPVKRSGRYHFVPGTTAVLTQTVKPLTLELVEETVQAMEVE
# UniProt P50238: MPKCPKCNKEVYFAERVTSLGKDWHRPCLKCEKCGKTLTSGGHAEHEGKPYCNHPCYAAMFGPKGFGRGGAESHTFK
# UniProt P47897: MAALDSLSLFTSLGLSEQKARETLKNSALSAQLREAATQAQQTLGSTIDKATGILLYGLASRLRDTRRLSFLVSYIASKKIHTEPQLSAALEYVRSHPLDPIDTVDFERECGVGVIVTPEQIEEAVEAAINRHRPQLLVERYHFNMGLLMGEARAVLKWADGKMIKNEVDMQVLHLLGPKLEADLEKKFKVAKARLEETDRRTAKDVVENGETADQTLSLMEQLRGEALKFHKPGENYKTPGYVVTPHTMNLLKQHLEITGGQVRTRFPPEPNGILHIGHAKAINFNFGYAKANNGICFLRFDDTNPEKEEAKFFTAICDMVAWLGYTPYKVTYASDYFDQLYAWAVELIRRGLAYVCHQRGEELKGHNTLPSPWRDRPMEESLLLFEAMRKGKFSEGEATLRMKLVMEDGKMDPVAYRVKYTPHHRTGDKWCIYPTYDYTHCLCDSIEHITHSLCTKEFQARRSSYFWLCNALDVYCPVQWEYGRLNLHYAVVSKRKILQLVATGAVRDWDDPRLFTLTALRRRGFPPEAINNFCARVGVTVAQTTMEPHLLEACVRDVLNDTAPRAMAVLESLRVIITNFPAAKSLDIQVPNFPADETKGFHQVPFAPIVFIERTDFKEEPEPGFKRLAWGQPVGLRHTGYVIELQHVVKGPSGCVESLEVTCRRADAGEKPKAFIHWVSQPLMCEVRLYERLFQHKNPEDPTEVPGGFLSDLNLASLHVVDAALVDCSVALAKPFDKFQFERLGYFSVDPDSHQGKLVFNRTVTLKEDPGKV
# UniProt P52788: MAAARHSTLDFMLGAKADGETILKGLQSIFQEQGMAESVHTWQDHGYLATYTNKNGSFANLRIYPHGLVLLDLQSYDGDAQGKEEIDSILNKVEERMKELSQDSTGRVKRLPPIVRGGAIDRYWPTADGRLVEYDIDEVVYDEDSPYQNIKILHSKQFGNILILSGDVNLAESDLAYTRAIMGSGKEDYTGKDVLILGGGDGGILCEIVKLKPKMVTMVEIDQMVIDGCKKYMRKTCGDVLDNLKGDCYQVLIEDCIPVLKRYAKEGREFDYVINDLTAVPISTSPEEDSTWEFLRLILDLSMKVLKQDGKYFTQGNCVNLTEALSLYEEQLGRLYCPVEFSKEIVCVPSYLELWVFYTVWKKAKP
# UniProt P50552: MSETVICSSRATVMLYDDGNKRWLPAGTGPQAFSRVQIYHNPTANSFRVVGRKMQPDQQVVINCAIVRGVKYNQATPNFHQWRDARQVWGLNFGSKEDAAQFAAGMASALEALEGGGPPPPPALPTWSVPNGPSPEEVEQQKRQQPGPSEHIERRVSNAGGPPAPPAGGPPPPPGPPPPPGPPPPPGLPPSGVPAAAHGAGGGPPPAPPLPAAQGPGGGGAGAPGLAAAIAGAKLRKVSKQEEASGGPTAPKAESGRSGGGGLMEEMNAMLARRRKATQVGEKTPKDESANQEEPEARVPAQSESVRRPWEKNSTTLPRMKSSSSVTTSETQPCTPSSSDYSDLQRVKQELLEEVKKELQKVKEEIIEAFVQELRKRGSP
# UniProt P49427: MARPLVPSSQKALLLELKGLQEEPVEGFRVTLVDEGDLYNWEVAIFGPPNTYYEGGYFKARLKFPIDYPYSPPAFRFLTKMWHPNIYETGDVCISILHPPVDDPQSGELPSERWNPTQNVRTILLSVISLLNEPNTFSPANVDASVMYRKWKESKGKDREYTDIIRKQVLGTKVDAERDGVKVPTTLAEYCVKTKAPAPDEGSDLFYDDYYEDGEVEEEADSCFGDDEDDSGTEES
# UniProt P51649: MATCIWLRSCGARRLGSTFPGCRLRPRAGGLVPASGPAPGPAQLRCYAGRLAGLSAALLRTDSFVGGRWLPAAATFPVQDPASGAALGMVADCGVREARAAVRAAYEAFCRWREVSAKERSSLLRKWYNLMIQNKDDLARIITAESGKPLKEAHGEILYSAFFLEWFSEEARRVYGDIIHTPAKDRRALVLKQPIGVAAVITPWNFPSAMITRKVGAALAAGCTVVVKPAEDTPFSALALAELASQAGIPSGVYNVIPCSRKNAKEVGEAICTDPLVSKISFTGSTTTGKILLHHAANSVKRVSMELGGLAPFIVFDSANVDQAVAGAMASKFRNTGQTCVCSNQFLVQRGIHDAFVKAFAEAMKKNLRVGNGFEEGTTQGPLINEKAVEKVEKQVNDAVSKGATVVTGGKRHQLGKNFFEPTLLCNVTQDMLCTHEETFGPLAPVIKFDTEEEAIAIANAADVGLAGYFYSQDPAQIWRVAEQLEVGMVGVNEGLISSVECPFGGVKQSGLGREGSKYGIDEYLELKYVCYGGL
# UniProt P51116, whole entry: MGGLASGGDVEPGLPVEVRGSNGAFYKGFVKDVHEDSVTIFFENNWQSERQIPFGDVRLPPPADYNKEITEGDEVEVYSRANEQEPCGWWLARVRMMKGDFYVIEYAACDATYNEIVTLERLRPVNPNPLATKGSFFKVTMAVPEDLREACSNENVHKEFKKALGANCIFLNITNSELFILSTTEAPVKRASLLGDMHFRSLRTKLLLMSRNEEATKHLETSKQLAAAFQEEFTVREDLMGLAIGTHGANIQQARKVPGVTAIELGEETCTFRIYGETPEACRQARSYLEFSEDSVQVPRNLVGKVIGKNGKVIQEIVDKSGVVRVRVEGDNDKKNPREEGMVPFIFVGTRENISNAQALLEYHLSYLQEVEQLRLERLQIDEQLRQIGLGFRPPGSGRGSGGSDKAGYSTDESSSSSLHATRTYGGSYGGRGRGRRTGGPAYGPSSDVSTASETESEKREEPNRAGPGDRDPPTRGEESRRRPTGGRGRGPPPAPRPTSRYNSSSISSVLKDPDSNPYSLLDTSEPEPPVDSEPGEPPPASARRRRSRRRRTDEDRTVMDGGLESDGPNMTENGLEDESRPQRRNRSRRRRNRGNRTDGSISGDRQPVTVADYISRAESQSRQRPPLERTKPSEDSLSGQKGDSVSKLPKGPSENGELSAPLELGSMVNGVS
# UniProt P35998: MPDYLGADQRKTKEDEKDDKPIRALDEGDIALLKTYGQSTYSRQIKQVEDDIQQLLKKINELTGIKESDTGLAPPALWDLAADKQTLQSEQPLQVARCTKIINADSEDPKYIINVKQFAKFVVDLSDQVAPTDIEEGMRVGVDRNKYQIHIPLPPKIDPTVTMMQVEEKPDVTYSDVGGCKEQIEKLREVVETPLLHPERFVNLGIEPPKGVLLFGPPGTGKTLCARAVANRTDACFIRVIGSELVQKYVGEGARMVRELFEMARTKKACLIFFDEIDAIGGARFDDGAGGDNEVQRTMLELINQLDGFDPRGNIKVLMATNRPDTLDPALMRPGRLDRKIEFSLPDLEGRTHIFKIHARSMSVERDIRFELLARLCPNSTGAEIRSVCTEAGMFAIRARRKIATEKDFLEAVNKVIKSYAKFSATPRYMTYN
# UniProt P40938, whole entry: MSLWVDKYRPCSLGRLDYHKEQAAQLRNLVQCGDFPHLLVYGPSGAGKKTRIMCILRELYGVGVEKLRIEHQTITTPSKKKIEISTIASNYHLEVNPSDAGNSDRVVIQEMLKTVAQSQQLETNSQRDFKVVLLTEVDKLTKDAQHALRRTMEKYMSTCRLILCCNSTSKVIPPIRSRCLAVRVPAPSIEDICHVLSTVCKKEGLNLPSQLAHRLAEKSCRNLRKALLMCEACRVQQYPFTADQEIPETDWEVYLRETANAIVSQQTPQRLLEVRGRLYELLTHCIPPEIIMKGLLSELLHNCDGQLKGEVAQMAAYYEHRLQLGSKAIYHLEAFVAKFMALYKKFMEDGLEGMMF
# ± gives the standard deviation of the averaged measurements. This is a selection; strong and weak results do not stand in their true shares. Most entries show no effect beyond the scatter of the controls.
# Compound: Nc1ncnc2c1ncn2[C@@H]1O[C@H](COP(=O)(O)OP(=O)(O)OP(=O)(O)O)[C@@H](O)[C@H]1O [adenosine triphosphate]
# Test: NP40-soluble protein abundance relative to vehicle (solubility fold change) (ratio); higher = more soluble protein in presence of ATP
# Summary of the method: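 Jurkat crude lysate prepared with a Dounce homogeniser was treated at eight concentrations spanning 0.1 to 10 mM, 10 min at room temperature then 3 min at 37 °C. Solubilisation with 0.8% NP40 and benzonase and ultracentrifugation preceded TMT labelling of the supernatant for LC-MS/MS. Fold change against the detergent-processed vehicle was determined per replicate from vsn-normalised intensities, across three independent experiments.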
target,measurement,setting,value
UniProt P49902 and related entries,NP40-soluble protein abundance,concentration: 0.1mM,1.06 ± 0.064
same,NP40-soluble protein abundance,concentration: 0.5mM,1.01 ± 0.057
GALK1 (UniProt P51570),NP40-soluble protein abundance,concentration: 0.1mM,0.986 ± 0.026
same,NP40-soluble protein abundance,concentration: 0.5mM,0.994 ± 0.014
GMPS (UniProt P49915),NP40-soluble protein abundance,concentration: 0.1mM,1.04 ± 0.071
same,NP40-soluble protein abundance,concentration: 0.5mM,1.05 ± 0.056
UniProt P48960 and related entries,NP40-soluble protein abundance,concentration: 0.1mM,0.9763 ± 0.0084
same,NP40-soluble protein abundance,concentration: 0.5mM,0.916 ± 0.05
UniProt P51532-2|P51532-3|P51532-4|P51532-5|Q9HBD4 and related entries,NP40-soluble protein abundance,concentration: 0.1mM,0.99 ± 0.058
same,NP40-soluble protein abundance,concentration: 0.5mM,1.06 ± 0.086
PSMB10 (UniProt P40306),NP40-soluble protein abundance,concentration: 0.1mM,0.963 ± 0.041
same,NP40-soluble protein abundance,concentration: 0.5mM,0.971 ± 0.039
ACTR1B (UniProt P42025),NP40-soluble protein abundance,concentration: 0.1mM,0.9986 ± 0.008
same,NP40-soluble protein abundance,concentration: 0.5mM,0.977 ± 0.072
LSS (UniProt P48449),NP40-soluble protein abundance,concentration: 0.1mM,1.03 ± 0.085
same,NP40-soluble protein abundance,concentration: 0.5mM,1.01 ± 0.064
UniProt P52739 and related entries,NP40-soluble protein abundance,concentration: 0.1mM,1.08 ± 0.2
same,NP40-soluble protein abundance,concentration: 0.5mM,1.06 ± 0.062
CAPZA1 (UniProt P52907),NP40-soluble protein abundance,concentration: 0.1mM,1.02 ± 0.015
same,NP40-soluble protein abundance,concentration: 0.5mM,1.04 ± 0.062
CRIP1 (UniProt P50238),NP40-soluble protein abundance,concentration: 0.1mM,0.946 ± 0.091
same,NP40-soluble protein abundance,concentration: 0.5mM,0.949 ± 0.073
EIF2S3 (UniProt P41091),NP40-soluble protein abundance,concentration: 0.1mM,1 ± 0.06
same,NP40-soluble protein abundance,concentration: 0.5mM,1.042 ± 0.0087
QARS (UniProt P47897),NP40-soluble protein abundance,concentration: 0.1mM,1.02 ± 0.035
same,NP40-soluble protein abundance,concentration: 0.5mM,1.04 ± 0.043
HMGCL (UniProt P35914),NP40-soluble protein abundance,concentration: 0.1mM,0.971 ± 0.015
same,NP40-soluble protein abundance,concentration: 0.5mM,0.949 ± 0.024
SMS (UniProt P52788),NP40-soluble protein abundance,concentration: 0.1mM,1.04 ± 0.025
same,NP40-soluble protein abundance,concentration: 0.5mM,1.02 ± 0.067
VASP (UniProt P50552),NP40-soluble protein abundance,concentration: 0.1mM,0.945 ± 0.028
same,NP40-soluble protein abundance,concentration: 0.5mM,0.992 ± 0.035
CENPF (UniProt P49454),NP40-soluble protein abundance,concentration: 0.1mM,0.993 ± 0.018
same,NP40-soluble protein abundance,concentration: 0.5mM,1.01 ± 0.06
CDC34 (UniProt P49427),NP40-soluble protein abundance,concentration: 0.1mM,0.962 ± 0.05
same,NP40-soluble protein abundance,concentration: 0.5mM,0.992 ± 0.09
UniProt P48047,NP40-soluble protein abundance,concentration: 0.1mM,0.899 ± 0.12
same,NP40-soluble protein abundance,concentration: 0.5mM,0.848 ± 0.14
UniProt P45983-3|P45983-4,NP40-soluble protein abundance,concentration: 0.1mM,1.04 ± 0.068
same,NP40-soluble protein abundance,concentration: 0.5mM,1.06 ± 0.033
GNAQ (UniProt P50148),NP40-soluble protein abundance,concentration: 0.1mM,1.04 ± 0.13
same,NP40-soluble protein abundance,concentration: 0.5mM,1.05 ± 0.074
HSPA13 (UniProt P48723),NP40-soluble protein abundance,concentration: 0.1mM,0.995 ± 0.046
same,NP40-soluble protein abundance,concentration: 0.5mM,1.01 ± 0.031
UniProt P52789 and related entries,NP40-soluble protein abundance,concentration: 0.1mM,1.03 ± 0.02
same,NP40-soluble protein abundance,concentration: 0.5mM,1.03 ± 0.027
GCLM (UniProt P48507),NP40-soluble protein abundance,concentration: 0.1mM,0.9574 ± 0.0067
same,NP40-soluble protein abundance,concentration: 0.5mM,0.934 ± 0.026
DAP3 (UniProt P51398),NP40-soluble protein abundance,concentration: 0.1mM,0.972 ± 0.1
same,NP40-soluble protein abundance,concentration: 0.5mM,1.02 ± 0.12
RFX3 (UniProt P48380),NP40-soluble protein abundance,concentration: 0.1mM,1.02 ± 0.087
same,NP40-soluble protein abundance,concentration: 0.5mM,1.02 ± 0.066
UniProt P51649 and related entries,NP40-soluble protein abundance,concentration: 0.1mM,1.03 ± 0.032
same,NP40-soluble protein abundance,concentration: 0.5mM,1.04 ± 0.063
UniProt P49768 and related entries,NP40-soluble protein abundance,concentration: 0.1mM,0.916 ± 0.086
same,NP40-soluble protein abundance,concentration: 0.5mM,0.895 ± 0.049
EMD (UniProt P50402),NP40-soluble protein abundance,concentration: 0.1mM,0.971 ± 0.058
same,NP40-soluble protein abundance,concentration: 0.5mM,1.13 ± 0.072
same,NP40-soluble protein abundance,concentration: 1mM,1.13 ± 0.096
same,NP40-soluble protein abundance,concentration: 2mM,1.16 ± 0.1
same,NP40-soluble protein abundance,concentration: 4mM,1.14 ± 0.11
same,NP40-soluble protein abundance,concentration: 6mM,1.11 ± 0.1
same,NP40-soluble protein abundance,concentration: 8mM,1.12 ± 0.086
same,NP40-soluble protein abundance,concentration: 10mM,1.15 ± 0.05
FXR2 (UniProt P51116),NP40-soluble protein abundance,concentration: 0.1mM,1.14 ± 0.15
same,NP40-soluble protein abundance,concentration: 0.5mM,1.43 ± 0.027
same,NP40-soluble protein abundance,concentration: 1mM,1.68 ± 0.23
same,NP40-soluble protein abundance,concentration: 2mM,1.77 ± 0.15
same,NP40-soluble protein abundance,concentration: 4mM,2.06 ± 0.29
same,NP40-soluble protein abundance,concentration: 6mM,2.24 ± 0.27
same,NP40-soluble protein abundance,concentration: 8mM,2.26 ± 0.3
same,NP40-soluble protein abundance,concentration: 10mM,2.33 ± 0.26
RBM25 (UniProt P49756),NP40-soluble protein abundance,concentration: 0.1mM,0.962 ± 0.087
same,NP40-soluble protein abundance,concentration: 0.5mM,1.1 ± 0.11
same,NP40-soluble protein abundance,concentration: 1mM,1.21 ± 0.074
same,NP40-soluble protein abundance,concentration: 2mM,1.33 ± 0.12
same,NP40-soluble protein abundance,concentration: 4mM,1.68 ± 0.22
same,NP40-soluble protein abundance,concentration: 6mM,2.25 ± 0.24
same,NP40-soluble protein abundance,concentration: 8mM,2.63 ± 0.34
same,NP40-soluble protein abundance,concentration: 10mM,3.08 ± 0.38
PPT1 (UniProt P50897),NP40-soluble protein abundance,concentration: 0.1mM,0.918 ± 0.033
same,NP40-soluble protein abundance,concentration: 0.5mM,0.938 ± 0.03
same,NP40-soluble protein abundance,concentration: 1mM,0.942 ± 0.054
same,NP40-soluble protein abundance,concentration: 2mM,0.92 ± 0.019
same,NP40-soluble protein abundance,concentration: 4mM,0.877 ± 0.034
same,NP40-soluble protein abundance,concentration: 6mM,0.957 ± 0.035
same,NP40-soluble protein abundance,concentration: 8mM,0.903 ± 0.016
same,NP40-soluble protein abundance,concentration: 10mM,0.86 ± 0.039
UniProt P42285,NP40-soluble protein abundance,concentration: 0.1mM,1.04 ± 0.046
same,NP40-soluble protein abundance,concentration: 0.5mM,1.07 ± 0.028
same,NP40-soluble protein abundance,concentration: 1mM,1.07 ± 0.07
same,NP40-soluble protein abundance,concentration: 2mM,1.06 ± 0.035
same,NP40-soluble protein abundance,concentration: 4mM,1.09 ± 0.033
same,NP40-soluble protein abundance,concentration: 6mM,1.07 ± 0.031
same,NP40-soluble protein abundance,concentration: 8mM,1.2 ± 0.013
same,NP40-soluble protein abundance,concentration: 10mM,1.21 ± 0.066
PSMC2 (UniProt P35998),NP40-soluble protein abundance,concentration: 0.1mM,0.974 ± 0.031
same,NP40-soluble protein abundance,concentration: 0.5mM,0.947 ± 0.052
same,NP40-soluble protein abundance,concentration: 1mM,0.9515 ± 0.0057
same,NP40-soluble protein abundance,concentration: 2mM,0.914 ± 0.029
same,NP40-soluble protein abundance,concentration: 4mM,0.882 ± 0.016
same,NP40-soluble protein abundance,concentration: 6mM,0.908 ± 0.1
same,NP40-soluble protein abundance,concentration: 8mM,0.899 ± 0.053
same,NP40-soluble protein abundance,concentration: 10mM,0.894 ± 0.047
UniProt P49354 and related entries,NP40-soluble protein abundance,concentration: 0.1mM,1.07 ± 0.043
same,NP40-soluble protein abundance,concentration: 0.5mM,1.04 ± 0.044
same,NP40-soluble protein abundance,concentration: 1mM,1.05 ± 0.088
same,NP40-soluble protein abundance,concentration: 2mM,1.01 ± 0.059
same,NP40-soluble protein abundance,concentration: 4mM,1.03 ± 0.053
same,NP40-soluble protein abundance,concentration: 6mM,0.955 ± 0.12
same,NP40-soluble protein abundance,concentration: 8mM,1.04 ± 0.076
same,NP40-soluble protein abundance,concentration: 10mM,0.996 ± 0.062
RFC3 (UniProt P40938),NP40-soluble protein abundance,concentration: 0.1mM,1.06 ± 0.054
same,NP40-soluble protein abundance,concentration: 0.5mM,1.18 ± 0.068
same,NP40-soluble protein abundance,concentration: 1mM,1.25 ± 0.036
same,NP40-soluble protein abundance,concentration: 2mM,1.3 ± 0.041
same,NP40-soluble protein abundance,concentration: 4mM,1.31 ± 0.041
same,NP40-soluble protein abundance,concentration: 6mM,1.31 ± 0.039
same,NP40-soluble protein abundance,concentration: 8mM,1.35 ± 0.061
same,NP40-soluble protein abundance,concentration: 10mM,1.36 ± 0.046

# A second format for some results above.
target	measurement	setting	value
UniProt P51649 and related entries	NP40-soluble protein abundance	concentration: 0.5mM	1.04 ± 0.063
UniProt P49768 and related entries	NP40-soluble protein abundance	concentration: 0.1mM	0.916 ± 0.086

# Three entries drawn at random from the list so far:
target,measurement,setting,value
UniProt P42285,NP40-soluble protein abundance,concentration: 2mM,1.06 ± 0.035
EMD (UniProt P50402),NP40-soluble protein abundance,concentration: 4mM,1.14 ± 0.11
PPT1 (UniProt P50897),NP40-soluble protein abundance,concentration: 0.1mM,0.918 ± 0.033
